The test system of series [1] is ΔNp63α (human (HaCaT keratinocytes)). In words: competition with a labelled probe. Particulars: EMSA: 5 µg HaCaT nuclear extract, end-labeled ds oligo, 5% native PAGE in 1x TBE at room temperature, binding buffer, salt and pH not given (cited), protein in an extract. For orientation: In EMSA bound probe runs differently from free probe, usually more slowly.
The test system is the same in series [2]. In words: EMSA supershift. Particulars: anti-ΔNp63 RR-14 or H-129 supershift, HaCaT nuclear extract; EMSA: 5 µg HaCaT nuclear extract, end-labeled ds oligo, 5% native PAGE in 1x TBE at room temperature; binding buffer, salt and pH not given (cited); protein in an extract.

The exact form of at least one protein or probe is not confirmed. Results from cells or extracts need not show a direct contact. For part of these data: Negatives hold for the conditions tested.

These results are taken from article PMC2680039.

Turning to “GGCGGCCTTCAGCCTATATCAACACAT (double strand) [K5HsII Mut (MT)]”, in series [1] (unlabeled MT does not compete with labeled K5HsII, label: unlabeled competitor), the binding result is reported as “no binding”.

In the case of “GGCGGCCTTCAGCCTGTATCAACACAT (double strand) [K5HsII (WT)]”, the binding result in series [1] (unlabeled WT competes with labeled K5HsII) and in series [2] was “binds” throughout.
